Data reported in patent US20220324943A1.
These are yes or no findings as the source states them, for the method shown. Some binding calls cover weakened binding; strength is not graded here. Where a sequence is shown, tags or fusion partners need not be part of it.

Sequences of proteins named here, by UniProt entry; tags and fusion partners are left off. Residues count along the entry.
UniProt P05230, residues 16-155: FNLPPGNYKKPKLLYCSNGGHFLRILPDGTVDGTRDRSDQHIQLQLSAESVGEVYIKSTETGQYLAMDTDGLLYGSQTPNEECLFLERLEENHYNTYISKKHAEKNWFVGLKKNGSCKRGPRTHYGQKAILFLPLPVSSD
UniProt P09038, residues 143-288: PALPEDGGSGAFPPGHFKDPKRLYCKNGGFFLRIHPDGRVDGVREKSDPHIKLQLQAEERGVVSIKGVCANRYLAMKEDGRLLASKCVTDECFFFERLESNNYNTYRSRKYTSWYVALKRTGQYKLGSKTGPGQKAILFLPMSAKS

What was measured:
acidic FGF [1] = target: acidic FGF (UniProt P05230); assay: SPR, FGFR1-CCD injected over immobilized ligand
basic FGF [2] = target: basic FGF (UniProt P09038); assay: SPR, FGFR1-CCD injected over immobilized ligand
acidic FGF [3] = target: acidic FGF (UniProt P05230); assay: sensorgram (SPR by the legend, axis in nm); FGFR1-CCD injected over immobilized ligand, 600 s association, 600 s dissociation
basic FGF [4] = target: basic FGF (UniProt P09038); assay: as above

binding (acidic FGF [1]): binds
binding (basic FGF [2]): binds
binding (acidic FGF [3]): binds
binding (basic FGF [4]): binds
B1: FGFR1-CCD fusion protein (receptor)
chain: RPSPTLPEQAQPWGAPVEVESFLVHPGDLLQLRCRLRDDVQSINWLRDGVQLAESNRTRITGEEVEVQDSVPADSGLYACVTSSPSGSDTTYFSVNVSDALPSSEDDDDDDDSSSEEKETDNTKPNPVAPYWTSPEKMEKKLHAVPAAKTVKFKCPSSGTPNPTLRWLKNGKEFKPDHRIGGYKVRYATGSIIMDSVVPSDKGNYTCIVENEYGSINHTYQLDVVERSPHRPILQAGLPANKTVALGSNVEFMCKVYSDPQPHIQWLKHIEVNGSKIGPDNLPYVQILKTAGVNTTDKEMEVLHLRNVSFEDAGEYTCLAGNSIGLSHHSAWLTVLEALEERPAVMLKEFMGYQGPPGPPGPPGIPGNHGNNGNNGATGHEGAKGEKGDKGDLGPRGERGQHGPKGEKGYPGIPGYCGPPGPPGPPGIPGNHGNNGNNGATGHEGAKGEKGDKGDLGPRGERGQHGPKGEKGYPGIPDYKDDDDKLQISSTVAAAHHHHHHV
